Laboratory results reported in US20060134119A1, “Drugs containing galectin 9” (priority 2003, published 2006).
Results are given in words; binding and its absence hold for the method and conditions named. For some assays here: In cells and extracts the contact can be indirect. Some binding calls cover weakened binding; strength is not graded here. Blank lines part the entries; values can stand above or below the molecule they belong to.

Protein sequences, listed by entry. Tags and fused reporters are not part of them. Residues count along the entry.
UniProt O00182, residues 210-355: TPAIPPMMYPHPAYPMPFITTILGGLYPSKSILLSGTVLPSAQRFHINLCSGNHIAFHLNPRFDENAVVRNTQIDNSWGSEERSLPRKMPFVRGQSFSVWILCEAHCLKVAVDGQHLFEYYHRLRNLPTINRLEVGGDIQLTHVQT
UniProt P25705, residues 44-553: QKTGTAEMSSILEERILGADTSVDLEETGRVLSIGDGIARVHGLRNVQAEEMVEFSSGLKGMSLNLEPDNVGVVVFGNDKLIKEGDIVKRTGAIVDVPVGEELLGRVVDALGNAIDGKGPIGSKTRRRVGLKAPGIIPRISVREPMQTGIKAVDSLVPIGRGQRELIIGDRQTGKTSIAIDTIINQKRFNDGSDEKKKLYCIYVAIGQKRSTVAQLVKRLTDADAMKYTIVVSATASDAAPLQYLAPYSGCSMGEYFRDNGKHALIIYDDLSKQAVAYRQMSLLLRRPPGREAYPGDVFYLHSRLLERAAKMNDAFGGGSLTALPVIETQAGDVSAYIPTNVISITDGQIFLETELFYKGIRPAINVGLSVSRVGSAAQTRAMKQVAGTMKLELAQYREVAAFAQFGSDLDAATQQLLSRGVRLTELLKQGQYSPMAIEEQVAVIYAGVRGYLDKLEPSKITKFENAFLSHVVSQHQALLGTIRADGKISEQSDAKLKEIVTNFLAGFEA

How the values were obtained:
[1] = target: GST gal9CT (GST-fused galectin-9 C-terminal region, immobilised on a column) (human) (UniProt O00182); test: GST-gal9CT affinity column, MOLT-4 detergent extract after GST pre-column, 200 mM lactose elution; SDS-PAGE Band 3, LC-MS/MS (Mascot)
[2] = target: GST gal9CT (GST-fused galectin-9 C-terminal region, immobilised on a column) (human) (UniProt O00182); test: GST-gal9CT affinity column, MOLT-4 detergent extract after GST pre-column, 200 mM lactose elution; SDS-PAGE Band 6, LC-MS/MS (Mascot)
[3] = target: GST gal9CT (GST-fused galectin-9 C-terminal region, immobilised on a column) (human) (UniProt O00182); test: GST-gal9CT affinity column, MOLT-4 detergent extract after GST pre-column, 200 mM lactose elution; SDS-PAGE bands A + B, internal sequence analysis
[4] = target: GST gal9CT (GST-fused galectin-9 C-terminal region, immobilised on a column) (human) (UniProt O00182); test: GST-gal9CT affinity column, MOLT-4 detergent extract after GST pre-column, 200 mM lactose elution; SDS-PAGE Band 11, LC-MS/MS (Mascot)
[5] = target: GST gal9CT (GST-fused galectin-9 C-terminal region, immobilised on a column) (human) (UniProt O00182); test: GST-gal9CT affinity column, MOLT-4 detergent extract after GST pre-column, 200 mM lactose elution; SDS-PAGE band D, internal sequence analysis

binding [1]: binds | binding [2]: binds
Molecule: ATP synthase, H^+ transporting, mitochondrial F1 complex, alpha subunit, isoform 1, cardiac muscle (from UniProt P25705 44-553) (enzyme)

binding [3]: binds
Molecule: ATP synthase, alpha chain (from UniProt P25705 44-553) (enzyme)

binding [4]: binds
B1: mitochondrial import receptor Tom22 (receptor, human, UniProt Q9NS69 2-142, looked up)
chain: AAAVAAAGAGEPQSPDELLPKGDAEKPEEELEEDDDEELDETLSERLWGLTEMFPERVRSAAGATFDLSLFVAQKMYRFSRAALWIGTTSFMILVLPVVFETEKLQMEQQQQLQQRQILLGPNTGLSGGMPGALPSLPGKI

binding [5]: binds
B2: ADP, ATP carrier protein (protein, human, UniProt P12236 2-298, looked up)
chain: TEQAISFAKDFLAGGIAAAISKTAVAPIERVKLLLQVQHASKQIAADKQYKGIVDCIVRIPKEQGVLSFWRGNLANVIRYFPTQALNFAFKDKYKQIFLGGVDKHTQFWRYFAGNLASGGAAGATSLCFVYPLDFARTRLAADVGKSGTEREFRGLGDCLVKITKSDGIRGLYQGFSVSVQGIIIYRAAYFGVYDTAKGMLPDPKNTHIVVSWMIAQTVTAVAGVVSYPFDTVRRRMMMQSGRKGADIMYTGTVDCWRKIFRDEGGKAFFKGAWSNVLRGMGGAFVLVLYDELKKVI
